Our source for the binding values is article doi:10.1101/2021.11.20.469315.

Protein sequences, listed by entry. Tags and fused reporters are not part of them.
UniProt Q9V3G1: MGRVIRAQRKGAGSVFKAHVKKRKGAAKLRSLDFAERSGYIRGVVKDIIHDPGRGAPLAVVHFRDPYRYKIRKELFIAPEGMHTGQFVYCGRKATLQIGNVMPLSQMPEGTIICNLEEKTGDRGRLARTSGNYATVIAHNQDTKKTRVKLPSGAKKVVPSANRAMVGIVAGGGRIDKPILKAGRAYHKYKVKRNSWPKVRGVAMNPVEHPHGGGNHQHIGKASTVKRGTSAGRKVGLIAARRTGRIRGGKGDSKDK
UniProt O76324: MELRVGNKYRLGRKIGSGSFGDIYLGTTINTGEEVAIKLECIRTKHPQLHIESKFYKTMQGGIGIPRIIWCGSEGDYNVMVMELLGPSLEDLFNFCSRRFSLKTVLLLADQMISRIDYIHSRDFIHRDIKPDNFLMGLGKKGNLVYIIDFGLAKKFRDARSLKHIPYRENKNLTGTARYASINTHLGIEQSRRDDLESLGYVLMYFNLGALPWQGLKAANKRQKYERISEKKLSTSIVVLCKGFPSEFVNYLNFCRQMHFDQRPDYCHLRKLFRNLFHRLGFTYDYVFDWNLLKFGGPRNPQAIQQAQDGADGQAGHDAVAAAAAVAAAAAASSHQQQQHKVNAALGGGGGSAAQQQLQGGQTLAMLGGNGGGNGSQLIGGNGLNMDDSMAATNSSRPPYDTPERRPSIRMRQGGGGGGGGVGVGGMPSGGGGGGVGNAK

Sequences and labels used below:
B1: TIMELESS (TIM) (protein, UniProt P49021 1-1398)
chain: MDWLLATPQLYSAFSSLGCLEGDTYVVNPNALAILEEINYKLTYEDQTLRTFRRAIGFGQNVRSDLIPLLENAKDDAVLESVIRILVNLTVPVECLFSVDVMYRTDVGRHTIFELNKLLYTSKEAFTEARSTKSVVEYMKHILESDPKLSPHKCDQINNCLLLLRNILHIPETHAHCVMPMMQSMPHGISMQNTILWNLFIQSIDKLLLYLMTCPQRAFWGVTMVQLIALIYKDQHVSTLQKLLSLWFEASLSESSEDNESNTSPPKQGSGDSSPMLTSDPTSDSSDNGSNGRGMGGGMREGTAATLQEVSRKGQEYQNAMARVPADKPDGSEEASDMTGNDSEQPGSPEQSQPAGESMDDGDYEDQRHRQLNEHGEEDEDEDEVEEEEYLQLGPASEPLNLTQQPADKVNNTTNPTSSAPQGCLGNEPFKPPPPLPVRASTSAHAQMQKFNESSYASHVSAVKLGQKSPHAGQLQLTKGKCCPQKRECPSSQSELSDCGYGTQVENQESISTSSNDDDGPQGKPQHQKPPCNTKPRNKPRTIMSPMDKKELRRKKLVKRSKSSLINMKGLVQHTPTDDDISNLLKEFTVDFLLKGYSYLVEELHMQLLSNAKVPIDTSHFFWLVTYFLKFAAQLELDMEHIDTILTYDVLSYLTYEGVSLCEQLELNARQEGSDLKPYLRRMHLVVTAIREFLQAIDTYNKVTHLNEDDKAHLRQLQLQISEMSDLRCLFVLLLRRFNPSIHSKQYLQDLVVTNHILLLILDSSAKLGGCQTIRLSEHITQFATLEVMHYYGILLEDFNNNGEFVNDCIFTMMHHIGGDLGQIGVLFQPIILKTYSRIWEADYELCDDWSDLIEYVIHKFMNTPPKSPLTIPTTSLTEMTKEHNQEHTVCSWSQEEMDTLYWYYVQSKKNNDIVGKIVKLFSNNGNKLKTRISIIQQLLQQDIITLLEYDDLMKFEDAEYQRTLLTTPTSATTESGIEIKECAYGKPSDDVQILLDLIIKENKAQHLLWLQRILIECCFVKLTLRSGLKVPEGDHIMEPVAYHCICKQKSIPVVQWNNEQSTTMLYQPFVLLLHKLGIQLPADAGSIFARIPDYWTPETMYGLAKKLGPLDKLNLKFDASELEDATASSPSRYHHTGPRNSLSSVSSLDVDLGDTEELALIPEVDAAVEKAHAMASTPSPSEIFAVPKTKHCNSIIRYTPDPTPPVPNWLQLVMRSKCNHRTGPSGDPSDCIGSSSTTVDDEGFGKSISAATSQAASTSMSTVNPTTTLSLNMLNTFMGSHNENSSSSGCGGTVSSLSMVALMSTGAAGGGGNTSGLEMDVDASMKSSFERLEVNGSHFSRANNLDQEYSAMVASVYEKEKELNSDNVSLASDLTRMYVSDEDDRLERTEIRVPHYH

No constants are given. Whether binding was seen depends on the method and setting. In cells and extracts the contact can be indirect. A yes stands for co-enrichment or nearness to the bait. Other partners may have been found.

The experiment concerns the target Drosophila PERIOD (dPER), N-terminal 3xFLAG-tagged, wild type (D. melanogaster) (UniProt P07663). Description: affinity purification with mass spectrometry.
Take “60S ribosomal protein L8 (RpL8, FBgn0261602) (from UniProt Q9V3G1 1-256)”: the binding entry was “binds”.

For the molecule “DOUBLETIME (DBT) (from UniProt O76324 1-440) (enzyme)”, the binding result is “binds”.

As for B1, the binding entry is listed as “binds”.
